Laboratory results: PubChem BioAssay AID1224826 (NIAID, 2016)
Aim: 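Knock-downs that raise or lower Tnf reporter signal after endotoxin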 (primary screen). Cells: RAW264.7 G9 macrophages from mouse bearing reporters for p65 (GFP) and the Tnf promoter (mCherry). Knock-down reagent: siRNA pool against mouse genes, 100 nM. Time to read-out: 16 h of LPS stimulation, after 2 days of siRNA transfection. Treatment: bacterial lipopolysaccharide (Salmonella minnesota R595), 10 ng/ml. Detection: 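Nuclear mCherry signal of the Tnf promoter reporter measured by imaging after background removal, scaled to each plate median and turned into robust z-scores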. Reading the numbers: Tnf reporter robust z-score: higher = stronger Tnf promoter reporter signal after LPS. Rule for the call: 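Called active when robust z-score is at most -1.3, matching the median of the Tlr4 knock-down control, or over 3; control wells and wells with under 50 cells never active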. Meaning of the calls: active = Tnf reporter clearly lowered or raised; inactive = no clear change in Tnf reporter.
Shown is one part, drawn at random, of about 17,000 reagents. About 1,110 of them (6.6%) were called active. 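Active means lowered or raised reporter signal; replicate intensities are raw and not normalised per plate.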 A number with no mark means an inactive call. Not all columns of the deposit are shown.

For Foxq1, what does the deposit list?
Tnf reporter robust z-score: 3.99 (active); fewer than 50 cells in well: enough cells in well

For Gsg1, how do the results read?
Tnf reporter robust z-score: -1.19; fewer than 50 cells in well: enough cells in well

What is on record for Fzr1?
Tnf reporter robust z-score: 0.03; fewer than 50 cells in well: enough cells in well

What did the screen give for Dennd2c?
Tnf reporter robust z-score: 0.11; fewer than 50 cells in well: enough cells in well

What is on record for Slamf1?
Tnf reporter robust z-score: 0.19; fewer than 50 cells in well: enough cells in well

How did the screen score Ackr4?
Tnf reporter robust z-score: 0.1; fewer than 50 cells in well: enough cells in well

What did the screen give for Hook2?
Tnf reporter robust z-score: -0.11; fewer than 50 cells in well: enough cells in well

How did the screen score Ppm1n?
Tnf reporter robust z-score: 1.79; fewer than 50 cells in well: enough cells in well

2 entries from above, reformatted.
{"target": "Fzr1", "Tnf reporter robust z-score": 0.03, "fewer than 50 cells in well": "enough cells in well"}
{"target": "Dennd2c", "Tnf reporter robust z-score": 0.11, "fewer than 50 cells in well": "enough cells in well"}

Further results:
With Tgif2, how do the results read?
Tnf reporter robust z-score: 0.15; fewer than 50 cells in well: enough cells in well

Which result is listed for Psg17?
Tnf reporter robust z-score: -1.16; fewer than 50 cells in well: enough cells in well

Which result is listed for Clk1?
Tnf reporter robust z-score: -1.34 (active); fewer than 50 cells in well: enough cells in well

With Tmem88, what does the deposit list?
fewer than 50 cells in well: fewer than 50 cells per well; well left out of calls
